Test results as given in article PMC5033581.

What was measured:
[1] = target: T1, Myc-Capn3b^C120S (zebrafish) (UniProt E9QE31); test: co-IP; 293T co-transfected with zebrafish def and Myc-Capn3a^C110S or Myc-Capn3b^C120S plasmids; blots with antibodies against zebrafish Def and the Myc-tag
T1 sequence: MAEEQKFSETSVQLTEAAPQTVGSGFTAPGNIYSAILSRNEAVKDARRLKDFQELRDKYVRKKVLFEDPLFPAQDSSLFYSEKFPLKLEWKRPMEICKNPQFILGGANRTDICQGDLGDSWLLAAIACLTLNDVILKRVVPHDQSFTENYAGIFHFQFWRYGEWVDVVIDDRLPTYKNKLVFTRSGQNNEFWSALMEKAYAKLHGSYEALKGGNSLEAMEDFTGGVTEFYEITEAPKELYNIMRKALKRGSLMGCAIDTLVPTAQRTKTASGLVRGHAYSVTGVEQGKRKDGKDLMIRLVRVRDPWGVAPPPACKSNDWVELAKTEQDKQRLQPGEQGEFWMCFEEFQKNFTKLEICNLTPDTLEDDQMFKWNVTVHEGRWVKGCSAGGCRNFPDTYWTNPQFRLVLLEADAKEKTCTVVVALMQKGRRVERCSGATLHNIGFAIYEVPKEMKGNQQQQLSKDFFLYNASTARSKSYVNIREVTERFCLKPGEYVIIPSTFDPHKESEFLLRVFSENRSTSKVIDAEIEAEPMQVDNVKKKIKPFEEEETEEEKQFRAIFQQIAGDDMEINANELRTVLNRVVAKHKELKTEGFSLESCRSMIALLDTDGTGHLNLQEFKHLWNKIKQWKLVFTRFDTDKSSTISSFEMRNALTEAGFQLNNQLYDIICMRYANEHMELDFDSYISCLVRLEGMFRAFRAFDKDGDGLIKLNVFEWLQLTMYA

[2] = target: T2, endogenous zebrafish Capn3b (adult liver nucleoli) (zebrafish (endogenous in adult liver)) (UniProt E9QE31); test: co-IP; endogenous proteins, nucleolar protein extract of adult zebrafish liver incubated with protein A/G agarose beads conjugated with anti-Capn3b antibody
T2 sequence: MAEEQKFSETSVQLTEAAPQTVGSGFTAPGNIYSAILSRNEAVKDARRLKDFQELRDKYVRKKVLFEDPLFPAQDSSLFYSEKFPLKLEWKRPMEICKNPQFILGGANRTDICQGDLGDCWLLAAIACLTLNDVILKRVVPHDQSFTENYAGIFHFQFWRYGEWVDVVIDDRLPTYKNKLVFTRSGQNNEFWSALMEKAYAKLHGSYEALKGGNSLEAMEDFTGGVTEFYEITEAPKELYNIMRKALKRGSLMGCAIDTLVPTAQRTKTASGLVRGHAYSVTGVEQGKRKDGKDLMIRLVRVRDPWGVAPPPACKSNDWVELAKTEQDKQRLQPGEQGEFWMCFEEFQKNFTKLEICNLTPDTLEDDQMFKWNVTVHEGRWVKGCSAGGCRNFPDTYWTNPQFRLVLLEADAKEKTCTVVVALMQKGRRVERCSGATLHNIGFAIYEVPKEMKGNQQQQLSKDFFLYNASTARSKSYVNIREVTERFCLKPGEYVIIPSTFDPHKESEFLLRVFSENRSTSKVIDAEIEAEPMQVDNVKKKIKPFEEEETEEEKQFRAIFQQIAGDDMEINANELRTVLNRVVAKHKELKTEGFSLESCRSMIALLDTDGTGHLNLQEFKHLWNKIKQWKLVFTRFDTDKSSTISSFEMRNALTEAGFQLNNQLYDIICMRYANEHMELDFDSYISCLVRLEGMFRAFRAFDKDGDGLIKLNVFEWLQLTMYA

[3] = target: Myc-Def_S87,92A (zebrafish); test: co-IP; 293T transfected with HA-capn3b^C120S plasmid alone or with Myc-def, Myc-def_S87,92A or Myc-def_S87,92E plasmid at ratios 1:1, 1:3 or 1:5; total protein 2 d after transfection; blots with anti-HA and anti-Myc (S2C Fig: 72 h, Myc-beads)
[4] = target: Myc-Def (zebrafish, wild type) (zebrafish); test: as above
[5] = target: Myc-Def_S87,92E (zebrafish); test: as above

Question: With zebrafish Def (expressed in 293T cells) as the molecule, how does the binding [1] read?
Answer: binds

Question: With “endogenous zebrafish Def (adult liver nucleoli)” as the molecule, how does the binding [2] read?
Answer: binds

B1: HA-Capn3b^C120S (enzyme, UniProt E9QE31 1-723)
chain: MAEEQKFSETSVQLTEAAPQTVGSGFTAPGNIYSAILSRNEAVKDARRLKDFQELRDKYVRKKVLFEDPLFPAQDSSLFYSEKFPLKLEWKRPMEICKNPQFILGGANRTDICQGDLGDSWLLAAIACLTLNDVILKRVVPHDQSFTENYAGIFHFQFWRYGEWVDVVIDDRLPTYKNKLVFTRSGQNNEFWSALMEKAYAKLHGSYEALKGGNSLEAMEDFTGGVTEFYEITEAPKELYNIMRKALKRGSLMGCAIDTLVPTAQRTKTASGLVRGHAYSVTGVEQGKRKDGKDLMIRLVRVRDPWGVAPPPACKSNDWVELAKTEQDKQRLQPGEQGEFWMCFEEFQKNFTKLEICNLTPDTLEDDQMFKWNVTVHEGRWVKGCSAGGCRNFPDTYWTNPQFRLVLLEADAKEKTCTVVVALMQKGRRVERCSGATLHNIGFAIYEVPKEMKGNQQQQLSKDFFLYNASTARSKSYVNIREVTERFCLKPGEYVIIPSTFDPHKESEFLLRVFSENRSTSKVIDAEIEAEPMQVDNVKKKIKPFEEEETEEEKQFRAIFQQIAGDDMEINANELRTVLNRVVAKHKELKTEGFSLESCRSMIALLDTDGTGHLNLQEFKHLWNKIKQWKLVFTRFDTDKSSTISSFEMRNALTEAGFQLNNQLYDIICMRYANEHMELDFDSYISCLVRLEGMFRAFRAFDKDGDGLIKLNVFEWLQLTMYA
Question: Which results are given for B1?
Answer: binding [3]: binds; binding [4]: binds; binding [5]: binds

No constants are given. Whether binding was seen depends on the method and setting. In cells and extracts the contact can be indirect. A result given as binding can be weak or reduced; the word gives no strength. For some assays here: Where a sequence is shown, tags or fusion partners need not be part of it.
